# Measured values reported in PMC9239255, “Switching off Bacterial Flagellar Biogenesis by YdiU-Mediated UMPylation of FlhDC”.
# These are yes or no findings as the source states them, for the method shown. Some results given as binding are weak or reduced against the parent protein; the word gives no strength.
# T1: FlhC T21A (E. coli strain K-12 substrain MG1655) (UniProt P0ABY7)
# T1 sequence: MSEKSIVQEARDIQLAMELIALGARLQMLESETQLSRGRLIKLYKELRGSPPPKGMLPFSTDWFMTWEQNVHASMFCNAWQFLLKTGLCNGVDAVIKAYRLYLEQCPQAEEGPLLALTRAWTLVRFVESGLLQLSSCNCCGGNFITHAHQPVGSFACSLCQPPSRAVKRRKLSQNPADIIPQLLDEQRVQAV
# T2: FlhC T86A (E. coli strain K-12 substrain MG1655) (UniProt P0ABY7)
# T2 sequence: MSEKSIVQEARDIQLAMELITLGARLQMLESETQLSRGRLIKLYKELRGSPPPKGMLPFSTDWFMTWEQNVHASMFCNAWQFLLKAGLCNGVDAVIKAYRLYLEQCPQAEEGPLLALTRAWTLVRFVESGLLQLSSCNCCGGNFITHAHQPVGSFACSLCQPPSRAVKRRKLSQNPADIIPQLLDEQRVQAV
# Columns and labels:
# [1] = molecular target: T1, FlhC T21A (E. coli strain K-12 substrain MG1655); assay: co-purification after co-expression; FlhD and mutated FlhC co-expressed from the flhDC coexpression construct (pET21b) in E. coli BL21(DE3) or BL21(DE3) ΔydiU; purified as in ref. 30
# [2] = molecular target: T2, FlhC T86A (E. coli strain K-12 substrain MG1655); assay: as above
binder,measurement,setting,value
"FlhD (protein, UniProt P0A8S9 1-116) MHTSELLKHIYDINLSYLLLAQRLIVQDKASAMFRLGINEEMATTLAALTLPQMVKLAETNQLVCHFRFDSHQTITQLTQDSRVDDLQQIHTGIMLSTRLLNDVNQPEEALRKKRA",binding,[1],binds
same,binding,[2],binds
